The list is a part of this screen's results and no random one: it is rich in T/C values a quarter to a half above the control, in often repeated tests (any T/C) and in doses without a T/C. Further doses and runs are listed elsewhere. T/C gives the treated animals as a percentage of the vehicle group. Some entries give survivors of the animals treated and no T/C: the source holds a T/C of zero for them, seemingly a mark for toxic or unscored doses. Some survivor counts are full or nearly so, which does not show that the dose was tolerated: the source hardly ever lists a survival T/C far under the control, and the zero likely stands for such cases as well. Counts of survivors are from the toxicity check (mostly the fifth day) where no day follows; animals may have died later. Schedules are NCI's codes, taken here to give the interval after Q, in days (D) or hours (H), and the number of doses after X. For survival time, this PubChem deposit counts one and a half times the control or more as active, and values a quarter to a half above the control carry no call in these data; other NCI protocols may use other cut-offs. Some T/C values carry the count of animals alive at the toxicity check (mostly the fifth day); where none is given, no animal had died by that day. Some entries were tested several times; the values are given in rising order.
Tested on: BDF1 mice, P388 leukemia ip, median survival T/C
Experiment: NCI In Vivo Anticancer Drug Screen. Data for tumor model P388 Leukemia (intraperitoneal) in B6D2F1 (BDF1) mice
Settings: T/C endpoint: median survival time, higher T/C = longer survival
Protocol: The antitumor activity of compounds was measured in mice bearing transplantable tumors. Survival or tumor size were measured and the results are expressed as the measurement made in the treated group (T) divided by the measurement made in the vehicle treated control group (C). The tumor model used in this assay is P388 Leukemia (intraperitoneal) in B6D2F1 (BDF1) mice

[1] = dose: 400.0 mg/kg/injection, schedule: Q01DX009 (ip), vehicle: saline with Tween-80
[2] = dose: 200.0 mg/kg/injection, schedule: Q04DX003 (ip), vehicle: saline with Tween-80
[3] = dose: 400.0 mg/kg/injection, schedule: Q04DX003 (ip), vehicle: saline with Tween-80
[4] = dose: 6.25 mg/kg/injection, schedule: Q01DX009 (ip), vehicle: saline with Tween-80
[5] = dose: 50.0 mg/kg/injection, schedule: Q01DX009 (ip), vehicle: saline with Tween-80
[6] = dose: 200.0 mg/kg/injection, schedule: Q01DX009 (ip), vehicle: saline with Tween-80
[7] = dose: 200.0 mg/kg/injection, schedule: Q01DX009 (ip), vehicle: water
[8] = dose: 400.0 mg/kg/injection, schedule: Q04DX003 (ip), vehicle: water
[9] = dose: 100.0 mg/kg/injection, schedule: Q04DX003 (ip), vehicle: saline with Tween-80
[10] = dose: 100.0 mg/kg/injection, schedule: Q01DX009 (ip), vehicle: saline with Tween-80
[11] = dose: 50.0 mg/kg/injection, schedule: Q01DX009 (ip), vehicle: Klucel (hydroxypropylcellulose) (HPC)
[12] = dose: 100.0 mg/kg/injection, schedule: Q01DX009 (ip), vehicle: Klucel (hydroxypropylcellulose) (HPC)
[13] = dose: 200.0 mg/kg/injection, schedule: Q01DX009 (ip), vehicle: Klucel (hydroxypropylcellulose) (HPC)

## O=C(c1ccccc1)C(Cl)C(=O)c1ccccc1
dose: 400.0 mg/kg/injection, schedule: Q01DX001 (ip), vehicle: saline with Tween-80
  survivor count: 2 of 6

## CC(=O)NCCN=Cc1ccccc1
[1]
  T/C: 125 % of control [5 of 6 alive]

## Brc1ccc(Oc2ccccc2)cc1
[2]
  T/C: 127 % of control
[3]
  T/C: 145 % of control

## CCCCCCCCCCCCCC(=O)O[C@@H]1[C@@H](C)[C@@]2(O)[C@@H](C=C(CO)C[C@]3(O)C(=O)C(C)=C[C@@H]23)[C@@H]2C(C)(C)[C@]12OC(C)=O
dose: 1.0 mg/kg/injection, schedule: Q01DX009 (ip), vehicle: saline + alcohol
  T/C: 126 % of control
dose: 6.2 micrograms/kg/injection, schedule: Q01DX009 (ip), vehicle: gum acacia
  T/C: 126 % of control
dose: 12.5 micrograms/kg/injection, schedule: Q01DX009 (ip), vehicle: gum acacia
  T/C: 135 % of control
dose: 100.0 micrograms/kg/injection, schedule: Q01DX009 (ip), vehicle: gum acacia
  T/C: 126 % of control
dose: 400.0 micrograms/kg/injection, schedule: Q01DX009 (ip), vehicle: gum acacia
  T/C: 140 % of control

## CC12CCC(c3sc(N)c(C#N)c31)C2(C)C (configuration not stated)
[4]
  T/C: 129 % of control

## Cc1ccc(N=NN(C)C)cc1
dose: 75.0 mg/kg/injection, schedule: Q01DX009 (ip), vehicle: saline with Tween-80
  T/C: 125 % of control

## CCN=C(N)Nc1ccc(NC(=O)c2ccc(C(=O)Nc3ccc(NC(N)=NCC)cc3)cc2)cc1
[3]
  survivor count: 3 of 6

## CCCCOCN(CCCc1ccccc1)COCCCC
[5]
  T/C: 136 % of control
[6]
  T/C: 127 % of control

## COc1ccc(CN2CC(C)NC(C)C2)cc1 (configuration not stated)
dose: 25.0 mg/kg/injection, schedule: Q04DX003 (ip), vehicle: water
  survivor count: 6 of 6
dose: 50.0 mg/kg/injection, schedule: Q04DX003 (ip), vehicle: water
  survivor count: 5 of 6
[7]
  T/C: 146 % of control
dose: 200.0 mg/kg/injection, schedule: Q04DX003 (ip), vehicle: water
  survivor count: 6 of 6
[8]
  survivor count: 1 of 6

## O=C1OC(c2ccccc2)=C/C1=C/c1ccc([N+](=O)[O-])cc1
[9]
  survivor count: 6 of 6
[2]
  survivor count: 6 of 6
[3]
  T/C: 126 % of control
  survivor count: 6 of 6
dose: 500.0 mg/kg/injection, schedule: Q04DX003 (ip), vehicle: saline with Tween-80
  survivor count: 6 of 6

## CSC(=S)NN=C(C)C
[4]
  survivor count: 6 of 6
dose: 12.5 mg/kg/injection, schedule: Q01DX009 (ip), vehicle: saline with Tween-80
  survivor count: 1 of 6

## S=c1[nH]cc2cnccn12
[5]
  T/C: 127 % of control
[10]
  T/C: 127 and 130 % of control
[6]
  survivor count: 4 of 6
[1]
  survivor count: 1 of 6
[3]
  survivor count: 6 of 6

## NC(Cc1cc(Br)c(O)c(Br)c1)C(=O)O (configuration not stated)
dose: 400.0 mg/kg/injection, schedule: Q04DX003 (ip), vehicle: saline
  survivor count: 4 of 6

## C[C@@H]1C[C@@]2(C)[C@@H](CC[C@@H]3[C@@H]2CC[C@]2(C)[C@@H](O)CC[C@@H]32)CC1=O
[11]
  survivor count: 6 of 6
[12]
  survivor count: 6 of 6
[13]
  survivor count: 6 of 6

## CCOc1nc(N)c(C(N)=O)cc1C#N
[10]
  T/C: 125 % of control
  survivor count: 6 of 6

## C[C@]12CCC(=O)C=C1CC[C@@H]1[C@@H]2C(=O)C[C@]2(C)C3=CC(=O)O[C@H]3C[C@@H]12
[13]
  survivor count: 2 of 6
dose: 400.0 mg/kg/injection, schedule: Q01DX009 (ip), vehicle: Klucel (hydroxypropylcellulose) (HPC)
  survivor count: 0 of 6

## C[C@]12CC[C@H](O)CC1=CC[C@@H]1[C@@H]2CC[C@]2(C)c3nc4ccccc4cc3C[C@@H]12
[9]
  survivor count: 6 of 6
[3]
  survivor count: 6 of 6

## COC(=O)C(CO)NC(=O)OCc1ccc(OC)cc1 (configuration not stated)
dose: 6.25 mg/kg/injection, schedule: Q01DX009 (ip), vehicle: distilled water + Tween-80
  survivor count: 6 of 6

## Clc1ccc2nc(CBr)cnc2c1
[10]
  survivor count: 6 of 6
[9]
  survivor count: 6 of 6
dose: 120.0 mg/kg/injection, schedule: Q04DX003 (ip), vehicle: Klucel (hydroxypropylcellulose) (HPC)
  survivor count: 6 of 6
dose: 180.0 mg/kg/injection, schedule: Q04DX003 (ip), vehicle: Klucel (hydroxypropylcellulose) (HPC)
  survivor count: 2 of 6
[6]
  survivor count: 0 of 6
dose: 270.0 mg/kg/injection, schedule: Q04DX003 (ip), vehicle: Klucel (hydroxypropylcellulose) (HPC)
  survivor count: 4 of 6
[3]
  survivor count: 0 of 6

## CC1=Nc2ccccc2/C1=C\c1c(C)[nH]c2ccccc12
[11]
  T/C: 91, 104, 113, 123 [5 of 6 alive], 166 % of control [5 of 6 alive]
[12]
  T/C: 140 and 145 % of control
[13]
  T/C: 129 % of control

## CC(=O)O[C@]1(C(C)=O)CC[C@H]2[C@@H]3C[C@H](Cl)C4=CC(=O)CC[C@]4(C)[C@H]3CC[C@@]21C
[3]
  survivor count: 6 of 6

## CC(=O)OC1CC(OC2C(O)CC(OC3C(O)CC(OC4CCC5(C)C(CCC6C5CCC5(C)C(C7=CC(=O)OC7)C(O)CC65O)C4)OC3C)OC2C)OC(C)C1OC1OC(CO)C(O)C(O)C1O (configuration not stated)
dose: 50.0 mg/kg/injection, schedule: Q01DX010 (ip), vehicle: carboxymethylcellulose (CMC)
  survivor count: 2 of 6
dose: 50.0 mg/kg/injection, schedule: Q04DX003 (ip), vehicle: Klucel (hydroxypropylcellulose) (HPC)
  survivor count: 2 of 6
dose: 100.0 mg/kg/injection, schedule: Q01DX010 (ip), vehicle: carboxymethylcellulose (CMC)
  survivor count: 1 of 6
dose: 100.0 mg/kg/injection, schedule: Q04DX003 (ip), vehicle: Klucel (hydroxypropylcellulose) (HPC)
  survivor count: 2 of 6

## CC(C)C[C@H](O)C(=O)O
dose: 100.0 mg/kg/injection, schedule: Q01DX009 (ip), vehicle: saline
  T/C: 136 % of control
dose: 200.0 mg/kg/injection, schedule: Q01DX009 (ip), vehicle: saline
  T/C: 135 % of control
dose: 400.0 mg/kg/injection, schedule: Q01DX009 (ip), vehicle: saline
  survivor count: 1 of 6

## CC1(C)N=C(N)N=C(N)N1c1ccc(OCCCNC(=O)Nc2cccc(S(=O)(=O)F)c2)c(Cl)c1
dose: 12.5 mg/kg/injection, schedule: Q04DX003 (ip), vehicle: saline with Tween-80
  T/C: 133 % of control
dose: 150.0 mg/kg/injection, schedule: Q01DX009 (ip), vehicle: saline with Tween-80
  survivor count: 4 of 6

## CCN(CC)c1ccc2nc3ccc(N=Nc4c(O)ccc5ccccc45)cc3[n+](-c3ccccc3)c2c1
dose: 50.0 mg/kg/injection, schedule: Q01DX005 (ip), vehicle: saline with Tween-80
  survivor count: 0 of 5
dose: 100.0 mg/kg/injection, schedule: Q01DX005 (ip), vehicle: saline with Tween-80
  survivor count: 0 of 5
dose: 200.0 mg/kg/injection, schedule: Q01DX005 (ip), vehicle: saline with Tween-80
  survivor count: 0 of 5

## CCSC1(SCC)C(=O)OC2=C(CCCCC2)C1N(C)c1ccccc1 (configuration not stated)
[10]
  survivor count: 6 of 6

## CCOC(=O)CNCc1ccc(Cl)c(Cl)c1
[8]
  survivor count: 2 of 6

## COc1ccc(C(CC(C)=O)c2c(O)c3ccccc3oc2=O)cc1OC (configuration not stated)
dose: 25.0 mg/kg/injection, schedule: Q01DX009 (ip), vehicle: water
  survivor count: 6 of 6
dose: 50.0 mg/kg/injection, schedule: Q01DX009 (ip), vehicle: water
  survivor count: 5 of 6
dose: 100.0 mg/kg/injection, schedule: Q01DX009 (ip), vehicle: water
  survivor count: 3 of 6
[7]
  survivor count: 3 of 6
dose: 400.0 mg/kg/injection, schedule: Q01DX009 (ip), vehicle: water
  survivor count: 2 of 6

## Cc1c(N)nc(Br)c2ccccc12
dose: 400.0 mg/kg/injection, schedule: Q04DX003 (ip), vehicle: saline sonified
  survivor count: 6 of 6

## CC(C)CCOP(=S)(N1CC1)N1CC1
[9]
  T/C: 136 % of control
[2]
  T/C: 131 % of control

## O/N=C1\CCCc2ccc(F)cc21
[10]
  T/C: 130 % of control

## BrCC(Br)CBr
[6]
  survivor count: 5 of 6

Source: PubChem BioAssay AID328 (DTP/NCI, 2004)
